# Source: PubChem BioAssay AID2517 (National Center for Advancing Translational Sciences (NCATS), 2010)
# By UniProt entry, the sequences of proteins in these tests, tags left out.
# UniProt P27695, whole entry, looked up: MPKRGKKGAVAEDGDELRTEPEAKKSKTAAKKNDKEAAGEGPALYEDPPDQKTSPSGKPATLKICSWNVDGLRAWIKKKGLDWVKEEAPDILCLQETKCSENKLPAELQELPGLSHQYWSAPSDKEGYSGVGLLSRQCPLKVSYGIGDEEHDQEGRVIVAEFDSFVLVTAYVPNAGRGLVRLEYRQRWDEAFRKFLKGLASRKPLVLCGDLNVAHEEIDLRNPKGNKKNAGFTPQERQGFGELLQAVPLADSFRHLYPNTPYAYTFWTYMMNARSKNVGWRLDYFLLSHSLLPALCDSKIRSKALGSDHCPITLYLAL
# About 1,200 (0.34%) of roughly 350,000 compounds were called active. Inconclusive means that the source gave no clear call. Such entries were picked first, then a sample of the others. Calls follow the shape of the dose curve; as a rule, active = well fitted inhibition curve with a large enough effect; inconclusive = small, poorly fitted or top-dose-only effect; inactive = no such curve, though single readings can be large or run the other way. Potencies of inconclusive entries are doubtful fits and often do not repeat.
# Target: DNA repair nuclease/redox regulator APEX1 (Homo sapiens) (UniProt P27695)
# Assay: qHTS Assay for Inhibitors of the Human Apurinic/apyrimidinic Endonuclease 1 (APE1); also: nearly all actives have a fitted effect of over 55% in size
# Conditions: recombinant APE1, TAMRA/BHQ-2 abasic DNA cleavage fluorescence; series mostly up to 65.8 µM
# Outline: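 APE1 at 0.75 nM final was preincubated with compound 15 min at room temperature, then 50 nM double-stranded THF abasic-site substrate (5'-TAMRA/3'-BHQ-2) was added. Fluorescence (ex 525/em 598 nm) was read kinetically; third-minus-first read gave activity.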
# Potency is read from the fitted curve at half-maximal effect.
row,Structure (SMILES),Potency
1,CCN(CC)S(=O)(=O)c1ccc2nc(COC(=O)c3n[nH]c4ccccc34)[nH]c2c1,"inconclusive: 44.7 µM [inhibitor, single point]"
2,COc1ccc(/C=C/N(CCc2ccc(OC)c(OC)c2)C(=O)C(F)(F)F)cc1,"inconclusive: 3.55 µM [inhibitor, single point]"
3,COc1ccc(CCC(=O)Nc2nc3ccccc3[nH]2)cc1,"inconclusive: 31.6 µM [inhibitor, single point]"
4,Cc1ccc(C)n1-c1ccc(C(=O)O)cc1,active: 14.1 µM
5,COc1ccc(OC2C=CC(C#Cc3ccccc3)OC2CO)cc1 (stereo not given),"inconclusive: 3.16 µM [inhibitor, single point]"
6,Cc1nonc1NC(=O)CSc1nc2ccccc2[nH]1,"inconclusive: 20 µM [inhibitor, partial curve]"
7,O=C1CC(c2ccccc2)n2nc(NC(=O)c3ccccn3)nc2N1 (stereo not given),"inconclusive: 50.1 µM [inhibitor, single point]"
8,Cc1ccc(-n2nc3c(N4CCC(C(=O)NCc5ccc(C)o5)CC4)nnc(C)c3c2C)cc1,inactive
9,CCN(CC)CCN1C(=O)C(=O)/C(=C(/O)c2ccc3c(c2)CC(C)O3)C1c1ccc(OC)cc1 (stereo not given),"inconclusive: 7.08 µM [inhibitor, single point]"
10,Cc1cnc(NC(=O)c2cc3c(s2)CCCC3)s1,"inconclusive: 44.7 µM [inhibitor, single point]"
11,C/C(=N\OCC(=O)N/N=C/c1ccccc1O)c1cccs1,inactive
12,O=C1CNC(=O)/C1=C\N1CCN(C(c2ccccc2)c2ccccc2)CC1,"inconclusive: 44.7 µM [inhibitor, single point]"
13,CCc1ccc2c(O)c3c(cc2c1C(=O)OC)C(=O)c1c(O)ccc(O)c1C3=O,"inconclusive: 3.55 µM [inhibitor, full curve]"
14,Nc1nonc1C(=O)N1CCCC1,inactive
15,Cc1ccc(-n2nc(C)c3c2OC(N)=C(C#N)C3c2ccco2)cc1 (stereo not given),inactive
16,CN=c1scc(C)n1/N=C/c1ccc(O)cc1O,inactive
17,COc1ccc(C)cc1S(=O)(=O)Nc1ccc(F)c(Cl)c1,inactive
18,CCCN(CC(=O)Nc1ccccc1C)C(=O)CC(NC(=O)c1ccccc1)c1ccccc1 (stereo not given),inactive
19,O=S(=O)(c1cccc(NC(=S)N2CCN(c3cccc(Cl)c3)CC2)c1)C(F)F,"inconclusive: 44.7 µM [inhibitor, partial curve, poor fit]"
20,CC(C)CCCCCCNC(=S)Nc1ccc(S(=O)(=O)N2CCOCC2)cc1,"inconclusive: 1.58 µM [inhibitor, full curve]"

# Random excerpt: 2 entries already listed.
row,Structure (SMILES),Potency
2,COc1ccc(/C=C/N(CCc2ccc(OC)c(OC)c2)C(=O)C(F)(F)F)cc1,"inconclusive: 3.55 µM [inhibitor, single point]"
15,Cc1ccc(-n2nc(C)c3c2OC(N)=C(C#N)C3c2ccco2)cc1 (stereo not given),inactive
